In paper PMC4608764, “The Q Motif Is Involved in DNA Binding but Not ATP Binding in ChlR1 Helicase” (PLoS ONE, 2015):
No constants are given. Whether binding was seen depends on the method and setting. Tags and fused reporters may be left off the sequences shown.

Molecular target: ChlR1-Q23A (human ChlR1 helicase, Q motif mutant, C-terminal 3xFLAG) (human) (UniProt Q96FC9)
Assay: sucrose density gradient centrifugation; linear 10-25% sucrose gradient, 25 mM Tris pH 7.4, 150 mM NaCl, 1 mM DTT; 0.5 mg/mL protein (50 uL) loaded; 120,000 g, 16 h, 4 C; fractions by SDS-PAGE; globular standards run in parallel; both purified

binding: no binding (tested: 0.5 mg/mL)
B1: ChlR1-Q23A (human ChlR1 helicase, Q motif mutant, C-terminal 3xFLAG) (enzyme, UniProt Q96FC9-2 1-906)
chain: MANETQKVGAIHFPFPFTPYSIAEDFMAELYRVLEAGKIGIFESPTGTGKSLSLICGALSWLRDFEQKKREEEARLLETGTGPLHDEKDESLCLSSSCEGAAGTPRPAGEPAWVTQFVQKKEERDLVDRLKAEQARRKQREERLQQLQHRVQLKYAAKRLRQEEEERENLLRLSREMLETGPEAERLEQLESGEEELVLAEYESDEEKKVASRVDEDEDDLEEEHITKIYYCSRTHSQLAQFVHEVKKSPFGKDVRLVSLGSRQNLCVNEDVKSLGSVQLINDRCVDMQRSRHEKKKGAEEEKPKRRRQEKQAACPFYNHEQMGLLRDEALAEVKDMEQLLALGKEARACPYYGSRLAIPAAQLVVLPYQMLLHAATRQAAGIRLQDQVVIIDEAHNLIDTITGMHSVEVSGSQLCQAHSQLLQYVERYGKRLKAKNLMYLKQILYLLEKFVAVLGGNIKQNPNTQSLSQTGTELKTINDFLFQSQIDNINLFKVQRYCEKSMISRKLFGFTERYGAVFSSREQPKLAGFQQFLQSLQPRTTEALAAPADESQASTLRPASPLMHIQGFLAALTTANQDGRVILSRQGSLSQSTLKFLLLNPAVHFAQVVKECRAVVIAGGTMQPVSDFRQQLLACAGVEAERVVEFSCGHVIPPDNILPLVICSGISNQPLEFTFQKRELPQMMDEVGRILCNLCGVVPGGVVCFFPSYEYLRQVHAHWEKGGLLGRLAARKKIFQEPKSAHQVEQVLLAYSRCIQACGQERGQVTGALLLSVVGGKMSEGINFSDNLGRCVVMVGMPFPNIRSAELQEKMAYLDQTLPRAPGQAPPGKALVENLCMKAVNQSIGRAIRHQKDFASVVLLDQRYARPPVLAKLPAWIRARVEVKATFGPAIAAVQKFHREKSASS
